In one assay the target is GST-Ubc9 (UniProt P63279). Kind of assay: pull-down; 3 µg GST or GST-Ubc9 immobilised on Sepharose beads, 1 µg recombinant RSUME195 or RSUME267, 1 h at 4°C in GST-binding buffer (20 mM Tris-HCl pH 7.4, 100 mM KCl, 2.5 mM CaCl2, 2.5 mM MgCl2, 1 mM DTT, 0.5% NP-40, 1 mM PMSF); Western blot; both purified.
A further assay deals with Flag-IκBα (UniProt P25963). Description: co-IP; COS-7 cells co-transfected with 500 ng V5-RSUME isoform and 500 ng IκBα or HIF-1alpha vector; hypoxia 16 h only for HIF-1alpha; modified RIPA lysate; immunoprecipitated with anti-Flag, blotted with anti-V5 or anti-Flag.
A further assay deals with Flag-HIF-1alpha (UniProt Q16665). The assay is described as above.

By UniProt entry, the sequences of proteins in these tests, tags left out.
UniProt P63279: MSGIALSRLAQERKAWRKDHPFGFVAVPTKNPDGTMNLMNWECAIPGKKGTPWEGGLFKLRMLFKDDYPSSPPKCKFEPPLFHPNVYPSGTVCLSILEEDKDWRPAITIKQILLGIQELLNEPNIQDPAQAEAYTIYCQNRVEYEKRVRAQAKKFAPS
UniProt P25963: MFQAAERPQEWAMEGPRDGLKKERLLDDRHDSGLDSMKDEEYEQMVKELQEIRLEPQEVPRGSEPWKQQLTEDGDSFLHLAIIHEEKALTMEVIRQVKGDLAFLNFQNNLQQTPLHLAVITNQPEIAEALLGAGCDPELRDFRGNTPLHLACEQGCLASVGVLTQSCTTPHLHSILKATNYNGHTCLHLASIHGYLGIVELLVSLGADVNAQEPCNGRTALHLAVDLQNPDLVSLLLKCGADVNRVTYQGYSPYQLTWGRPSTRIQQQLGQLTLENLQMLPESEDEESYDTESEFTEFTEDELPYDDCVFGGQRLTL
UniProt Q16665: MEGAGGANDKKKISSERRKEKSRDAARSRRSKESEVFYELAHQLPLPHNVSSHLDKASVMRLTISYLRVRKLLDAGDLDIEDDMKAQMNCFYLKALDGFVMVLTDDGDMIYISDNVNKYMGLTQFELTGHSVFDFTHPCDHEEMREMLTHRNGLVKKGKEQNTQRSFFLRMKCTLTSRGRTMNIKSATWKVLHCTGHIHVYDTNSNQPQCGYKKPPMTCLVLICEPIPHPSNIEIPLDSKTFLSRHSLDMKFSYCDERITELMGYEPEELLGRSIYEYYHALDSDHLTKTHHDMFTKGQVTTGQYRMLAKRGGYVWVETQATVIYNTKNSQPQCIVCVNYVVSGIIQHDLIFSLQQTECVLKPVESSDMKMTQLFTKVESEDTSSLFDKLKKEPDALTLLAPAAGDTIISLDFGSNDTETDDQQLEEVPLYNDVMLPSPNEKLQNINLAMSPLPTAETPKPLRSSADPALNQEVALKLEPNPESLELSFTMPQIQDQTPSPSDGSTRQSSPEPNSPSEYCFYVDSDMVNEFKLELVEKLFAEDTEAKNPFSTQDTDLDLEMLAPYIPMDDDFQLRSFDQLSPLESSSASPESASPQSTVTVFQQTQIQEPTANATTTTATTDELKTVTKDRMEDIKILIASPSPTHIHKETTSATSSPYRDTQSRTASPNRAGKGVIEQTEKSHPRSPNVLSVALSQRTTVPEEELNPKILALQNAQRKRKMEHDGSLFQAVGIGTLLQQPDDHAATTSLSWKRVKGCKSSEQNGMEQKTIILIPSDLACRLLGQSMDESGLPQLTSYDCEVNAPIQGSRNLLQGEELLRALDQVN

No constants are given. Whether binding was seen depends on the method and setting. For part of these data: Binding seen in cells or lysates may run through a third protein. Some entries that bind do so weakly or less than the wild type. For part of these data: Sequences can lack the tags named with a protein.

B1: recombinant RSUME195 (protein, UniProt Q9Y3V2-2 1-195)
chain: MAEPVQEELSVLAAIFCRPHEWEVLSRSETDGTVFRIHTKAEGFMDVDIPLELVFHLPVNYPSCLPGISINSEQLTRAQCVTVKENLLEQAESLLSEPMVHELVLWIQQNLRHILSQPETGSGSEKCTFSTSTTMDDGLWITLLHLDHMRAKTKYVKIVEKWASDLRLTGRLMFMGKIILILLQGDRNNLKVPKS
For B1, in the assay with GST-Ubc9, the binding result is “binds”.

B2: V5-RSUME195 (protein, UniProt Q9Y3V2-2 1-195)
chain: B1 chain
Regarding B2, the binding result in the assay with Flag-IκBα and in the assay with Flag-HIF-1alpha was “binds” in each case.

B3: recombinant RSUME267 (protein, UniProt Q9Y3V2-1 1-267)
chain: MAEPVQEELSVLAAIFCRPHEWEVLSRSETDGTVFRIHTKAEGFMDVDIPLELVFHLPVNYPSCLPGISINSEQLTRAQCVTVKENLLEQAESLLSEPMVHELVLWIQQNLRHILSQPETGSGSEKCTFSTSTTMDDGLWITLLHLDHMRAKTKYVKIVEKWASDLRLTGRLMFMGKIILILLQGDRNNLKEYLILQKTSKVDVDSSGKKCKEKMISVLFETKVQTEHKRFLAFEVKEYSALDELQKEFETAGLKKLFSEFVLALVK
With B3, the binding entry with GST-Ubc9 was “binds”.

B4: V5-RSUME267 (protein, UniProt Q9Y3V2-1 1-267)
chain: B3 chain
In the case of B4, the binding entry with Flag-IκBα and in the assay with Flag-HIF-1alpha was “binds” throughout.

The record behind these values is article PMC3585135.
